First the molecules themselves.
B1: MAb4: murine N-terminal anti-hPG monoclonal antibody, hybridoma 20D2C3G2, VH SEQ ID NO:14, VL SEQ ID NO:15 (antibody, V domains shown)
VH: QVQLQQSGAELMKPGASVKISCKATGYTFSSSWIEWLKQRPGHGLEWIGEFLPGSGSTDYNEKFKGKATFTADTSSDTAYMLLSSLTSEDSAVYYCATDGNYDWFAYWGQGTLVTVSA
VL: DLVMTQTPLSLPVSLGDQASISCRSSQSLVHSSGVTYLHWYLQKPGQSPKLLIYKVSNRFSGVPDRFSGSGSGTDFTLKISRVEAEDLGVYFCSQSTHVPPTFGSGTKLEIK
B2: MAb19: murine N-terminal anti-hPG monoclonal antibody, hybridoma 1B3B4F11, VH SEQ ID NO:62, VL SEQ ID NO:66 (antibody, V domains shown)
VH: DVQLQESGPGLVKPSQSLSLTCTVTGYSITSDYAWNWIRQFPGNKLEWMGYISFSGYTSYNPSLKSRISVTRDTSRNQFFLQLTSVTTEDTATYYCAREVNYGDSYHFDYWGQGTIVTVSS
VL: QLALTQSSSASFSLGASAKLTCTLSSQHRTYTIEWYQQQSLKPPKYVMEVKKDGSHSTGHGIPDRFSGSSSGADRYLSISNIQPEDEAIYICGVGDAIKGQSVFVFGGGTKVTVL
B3: MAb3: murine N-terminal anti-hPG monoclonal antibody, hybridoma 6B5B11C10, VH SEQ ID NO:12, VL SEQ ID NO:13 (antibody, V domains shown)
VH: EVQLQQSGTVLARPGASVKMSCKASGYIFTSYWVHWVKQRPGQGLEWIGGFYPGNSDSRYNQKFKGKATLTAVTSASTAYMDLSSLTNEDSAVYFCTRRDSPQYWGQGTTLTVSS
VL: DVLMTQTPLSLPVSLGDQASISCRSSQSIVHSNGNTYLEWYLQKPGQSPKLLIYKVSNRFSGVPDRFSGSGSGTDFTLKISRLEAEDLGVYYCFQGSHVPFTFGGGTKLEIK

The series deals with hPG. The series can be described thus: Epitope mapping by SPOT technique and alanine scanning. It is filed as binding, human. The note with it: PG peptide antigen SWKPRSQQPDAPLG (N-terminal).
In the case of B1, the Epitope sequence bound entry was “WKPRSQQPDAPLG”.

For B2, the Epitope sequence bound result is “WKPRSQQPD”.

In the case of B3, the Epitope sequence bound result is “DAPLG”.

The values above are taken from patent US10533050B2, “Methods and compositions for liver cancer therapy” (Institut National de la Sante et de la Recherche Medicale …, priority 2010, dated 2020).
